Assay [1] concerns the target T1, SH2 domain of SH3BP2 fused to FLAG (mouse) (UniProt Q06649).
T1 sequence: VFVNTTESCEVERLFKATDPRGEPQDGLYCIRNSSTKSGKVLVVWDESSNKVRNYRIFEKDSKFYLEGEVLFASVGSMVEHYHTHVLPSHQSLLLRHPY
Kind of assay: co-IP.

Amino acid sequences for entries named in this document (tags omitted). Residues count along the entry.
UniProt P04756, residues 317-428: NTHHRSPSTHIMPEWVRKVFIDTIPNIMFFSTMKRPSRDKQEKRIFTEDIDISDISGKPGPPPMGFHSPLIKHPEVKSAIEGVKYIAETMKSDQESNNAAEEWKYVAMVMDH

The target of assay [2] is T2, PH domain of SH3BP2 fused to FLAG (mouse) (UniProt Q06649).
T2 sequence: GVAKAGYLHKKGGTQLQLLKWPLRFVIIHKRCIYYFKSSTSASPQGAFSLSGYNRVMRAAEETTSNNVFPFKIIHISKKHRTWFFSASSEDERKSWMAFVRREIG
Kind of assay: co-IP.

Assay [3] addresses T3, SH3BP2-FLAG (full-length) (mouse, UniProt Q06649 1-559).
T3 sequence: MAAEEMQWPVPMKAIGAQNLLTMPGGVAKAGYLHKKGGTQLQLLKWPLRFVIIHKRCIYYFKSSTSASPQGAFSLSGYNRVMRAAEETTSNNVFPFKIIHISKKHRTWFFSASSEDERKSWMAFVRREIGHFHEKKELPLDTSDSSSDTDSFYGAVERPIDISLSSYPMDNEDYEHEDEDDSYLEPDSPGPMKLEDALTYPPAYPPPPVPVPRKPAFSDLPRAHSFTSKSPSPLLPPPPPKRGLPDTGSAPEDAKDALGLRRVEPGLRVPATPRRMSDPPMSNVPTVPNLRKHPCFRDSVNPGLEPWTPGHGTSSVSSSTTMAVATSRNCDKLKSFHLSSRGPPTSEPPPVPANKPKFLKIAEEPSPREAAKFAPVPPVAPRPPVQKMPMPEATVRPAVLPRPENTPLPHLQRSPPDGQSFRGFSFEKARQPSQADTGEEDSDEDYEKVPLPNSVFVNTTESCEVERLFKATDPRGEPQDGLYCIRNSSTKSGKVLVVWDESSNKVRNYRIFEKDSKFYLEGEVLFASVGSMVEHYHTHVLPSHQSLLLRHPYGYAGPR
Kind of assay: co-IP.

Assay [4] concerns the target T4, AChRα cytoplasmic domain peptide P3 (mouse).
T4 sequence (peptide, N-terminal biotin): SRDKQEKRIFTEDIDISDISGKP
Kind of assay: pull-down.

Assay [5] has as its target T5, αDB1 peptide Y713-P (phosphorylated Y713) (mouse).
T5 sequence (peptide, phosphotyrosine at Y713 (pY); N-terminal DEST–Biotin–Ahx; C-terminal amide (NH2)): TQPEDGNYENESVRQ
Nature of the assay: pull-down.

In assay [6] the target is T6, AChRα cytoplasmic domain peptide P1 (mouse).
T6 sequence (peptide, N-terminal biotin): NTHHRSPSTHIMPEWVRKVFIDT
Kind of assay: pull-down.

The target in assay [7] is T7, AChRα cytoplasmic domain peptide P6 (mouse).
T7 sequence (peptide, N-terminal biotin): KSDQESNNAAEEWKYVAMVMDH
Kind of assay: pull-down.

For assay [8], the target named is T8, AChRα cytoplasmic domain peptide P4 (mouse).
T8 sequence (peptide, N-terminal biotin): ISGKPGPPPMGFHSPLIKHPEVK
Kind of assay: pull-down.

Assay [9] concerns the target T9, AChRα cytoplasmic domain peptide P5 (mouse).
T9 sequence (peptide, N-terminal biotin): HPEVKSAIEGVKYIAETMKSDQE
Kind of assay: pull-down.

The target in assay [10] is T10, β-dystroglycan cytoplasmic domain fused to GFP (mouse) (UniProt Q62165).
T10 sequence: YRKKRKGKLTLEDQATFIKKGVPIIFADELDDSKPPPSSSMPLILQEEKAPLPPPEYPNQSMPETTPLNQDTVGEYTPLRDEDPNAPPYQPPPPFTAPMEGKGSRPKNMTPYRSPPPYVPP
Kind of assay: co-IP.

Assay [11] deals with T11, AChRα cytoplasmic domain peptide P2 (mouse).
T11 sequence (peptide, N-terminal biotin): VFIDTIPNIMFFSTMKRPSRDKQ
Nature of the assay: pull-down.

In assay [12] the target is T12, αDB1 peptide Y730-P (phosphorylated Y730) (mouse).
T12 sequence (peptide, phosphotyrosine at Y730 (pY); N-terminal DEST–Biotin–Ahx; C-terminal amide (NH2)): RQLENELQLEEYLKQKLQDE
Kind of assay: pull-down.

In assay [13] the target is T13, αDB1 peptide Y730 (unphosphorylated) (mouse).
T13 sequence (peptide, N-terminal DEST–Biotin–Ahx; C-terminal amide (NH2)): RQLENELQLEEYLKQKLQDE
Nature of the assay: pull-down.

The target in assay [14] is T14, SH3BP2-MYC (mouse) (UniProt Q06649).
T14 sequence: T3 sequence
Kind of assay: co-IP.

No constants are given. Whether binding was seen depends on the method and setting. For some of these results: Binding seen in cells or lysates may run through a third protein. Some entries that bind do so weakly or less than the wild type. Tags and fused reporters may be left off the sequences shown.

As for “cytAChRα-GFP (from UniProt P04756 317-428) (domain or fragment)”, the binding result in assay [1], in assay [2] and in assay [3] was “binds” in each case.

B1: cytAChRγ-GFP (domain or fragment, UniProt P04760 330-476)
chain: SLRSPHTHSMARGVRKLFLRLLPQLLRMHVRPLAPAAVQDARFRLQNGSSSGWPIMAREEGDLCLPRSELLFRQRQRNGLVQAVLEKLENGPEVRQSQEFCGSLKQASPAIQACVDACNLMARARRQQSHFDSGNEEWLLVGRVLDR
Turning to B1, in assay [3], the binding result was “binds”.

B2: PH domain of SH3BP2 fused to FLAG (domain or fragment, UniProt Q06649 26-130)
chain: T2 sequence
Turning to B2, the binding result is “binds” in assay [4] and “no binding” in assay [5].

B3: SH2 domain of SH3BP2 fused to FLAG (domain or fragment, UniProt Q06649 455-553)
chain: T1 sequence
Consider B3, for which the binding entry in [6] and in assay [5] was “binds” throughout.

B4: Rapsyn-mCherry (protein, UniProt P12672 1-412)
chain: MGQDQTKQQIEKGLQLYQSNQTEKALQVWMKVLEKGSDLVGRFRVLGCLVTAHSEMGRYKEMLKFAVVQIDTARGLEDADFLLESYLNLARSNEKLCEFHKTISYCKTCLGLPGTRAGAQLGGQVSLSMGNAFLGLSLFQKALESFEKALRYAHNNDDTMLECRVCCSLGSFYAQVKDYEKALFFPCKAAELVNDYGKGWSLKYRAMSQYHMAVAYRLLGHLGSAMECCEESMKIALQHGDRPLQALCLLCFADIHRSRGDLETAFPRYDSAMSIMTEIGNRLGQVHVLLGVAKCWMARKVQDKALDAIEKAQDLAEEVGNKLSQLKLHCLSESIYRSKGLQRELRTHVVRFHECVEETELYCGLCGESIGERNSRLQALPCSHIFHLRCLQNNGTRSCPNCRRSSMKPGFV
Take B4: the binding result in assay [7], in assay [8], in [4] and in assay [9] was “binds” each time.

B5: SH3BP2-FLAG (full-length) (protein, UniProt Q06649 1-559)
chain: T3 sequence
B5: the binding result in assay [10] is listed as “binds”; in assay [11], “binds”; in [7], “no binding”; in assay [8] it was “no binding”; in [4] it was “binds”; in [6] it was “binds”. Further, the binding entry in assay [9] is listed as “no binding”.

B6: SH3BP2-MYC (protein, UniProt Q06649 1-559)
chain: T3 sequence
As for B6, the binding result in assay [12] and in assay [13] was “no binding” each time.

B7: EGFP-SH3BP2 (protein, UniProt Q06649 1-559)
chain: T3 sequence
B7: the binding entry in [14] was “binds”.

Values taken from publication doi:10.1101/2024.05.23.595491 (bioRxiv, 2024).
